# Experimental data taken from the supplement of paper PMC12819154, “High-throughput peptide-centric local stability assay extends protein–ligand identification to membrane proteins, tissues and bacteria” (Nature Structural & Molecular Biology, 2025).
# Chains of the proteins cited; added tags and fusions are not shown. Lines headed by an entry give the natural chain unless they say otherwise; changes in a name come on top.
# UniProt Q8CBY8, whole entry: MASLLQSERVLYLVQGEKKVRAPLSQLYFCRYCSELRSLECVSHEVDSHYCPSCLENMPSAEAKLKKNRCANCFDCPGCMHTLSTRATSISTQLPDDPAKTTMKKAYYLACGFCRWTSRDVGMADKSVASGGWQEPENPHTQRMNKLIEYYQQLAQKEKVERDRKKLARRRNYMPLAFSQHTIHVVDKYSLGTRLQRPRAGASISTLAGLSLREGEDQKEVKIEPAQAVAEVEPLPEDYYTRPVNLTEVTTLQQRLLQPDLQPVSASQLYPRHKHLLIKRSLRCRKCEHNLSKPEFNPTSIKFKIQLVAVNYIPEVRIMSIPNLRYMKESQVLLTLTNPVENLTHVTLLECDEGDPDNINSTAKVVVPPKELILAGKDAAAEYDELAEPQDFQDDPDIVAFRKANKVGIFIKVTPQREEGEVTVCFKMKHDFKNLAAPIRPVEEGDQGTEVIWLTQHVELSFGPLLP
# UniProt Q8CGK3: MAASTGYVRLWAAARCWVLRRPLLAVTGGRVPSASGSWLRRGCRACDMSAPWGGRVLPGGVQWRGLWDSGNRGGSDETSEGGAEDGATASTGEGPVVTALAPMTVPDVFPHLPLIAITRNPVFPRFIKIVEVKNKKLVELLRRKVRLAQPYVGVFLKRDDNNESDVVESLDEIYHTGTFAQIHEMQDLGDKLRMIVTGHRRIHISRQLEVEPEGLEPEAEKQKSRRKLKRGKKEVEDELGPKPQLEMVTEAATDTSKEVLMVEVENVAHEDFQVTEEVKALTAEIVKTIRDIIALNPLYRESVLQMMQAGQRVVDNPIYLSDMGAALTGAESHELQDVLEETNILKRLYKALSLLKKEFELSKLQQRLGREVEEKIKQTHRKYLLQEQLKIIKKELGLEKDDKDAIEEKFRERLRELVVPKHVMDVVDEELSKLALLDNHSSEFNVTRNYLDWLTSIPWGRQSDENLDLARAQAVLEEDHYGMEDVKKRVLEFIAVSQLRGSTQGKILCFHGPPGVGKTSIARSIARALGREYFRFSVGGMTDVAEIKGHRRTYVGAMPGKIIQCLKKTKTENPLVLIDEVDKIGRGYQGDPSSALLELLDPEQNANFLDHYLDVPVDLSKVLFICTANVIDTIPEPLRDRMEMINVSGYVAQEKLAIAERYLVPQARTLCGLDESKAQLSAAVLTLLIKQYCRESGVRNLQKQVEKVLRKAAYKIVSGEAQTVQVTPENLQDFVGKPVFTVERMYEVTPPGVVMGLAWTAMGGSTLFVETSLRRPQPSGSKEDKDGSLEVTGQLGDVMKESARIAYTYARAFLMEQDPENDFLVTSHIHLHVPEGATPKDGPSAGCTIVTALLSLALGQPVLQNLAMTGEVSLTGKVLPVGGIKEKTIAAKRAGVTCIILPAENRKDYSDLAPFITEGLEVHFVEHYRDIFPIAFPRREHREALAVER
# UniProt Q8CIF6: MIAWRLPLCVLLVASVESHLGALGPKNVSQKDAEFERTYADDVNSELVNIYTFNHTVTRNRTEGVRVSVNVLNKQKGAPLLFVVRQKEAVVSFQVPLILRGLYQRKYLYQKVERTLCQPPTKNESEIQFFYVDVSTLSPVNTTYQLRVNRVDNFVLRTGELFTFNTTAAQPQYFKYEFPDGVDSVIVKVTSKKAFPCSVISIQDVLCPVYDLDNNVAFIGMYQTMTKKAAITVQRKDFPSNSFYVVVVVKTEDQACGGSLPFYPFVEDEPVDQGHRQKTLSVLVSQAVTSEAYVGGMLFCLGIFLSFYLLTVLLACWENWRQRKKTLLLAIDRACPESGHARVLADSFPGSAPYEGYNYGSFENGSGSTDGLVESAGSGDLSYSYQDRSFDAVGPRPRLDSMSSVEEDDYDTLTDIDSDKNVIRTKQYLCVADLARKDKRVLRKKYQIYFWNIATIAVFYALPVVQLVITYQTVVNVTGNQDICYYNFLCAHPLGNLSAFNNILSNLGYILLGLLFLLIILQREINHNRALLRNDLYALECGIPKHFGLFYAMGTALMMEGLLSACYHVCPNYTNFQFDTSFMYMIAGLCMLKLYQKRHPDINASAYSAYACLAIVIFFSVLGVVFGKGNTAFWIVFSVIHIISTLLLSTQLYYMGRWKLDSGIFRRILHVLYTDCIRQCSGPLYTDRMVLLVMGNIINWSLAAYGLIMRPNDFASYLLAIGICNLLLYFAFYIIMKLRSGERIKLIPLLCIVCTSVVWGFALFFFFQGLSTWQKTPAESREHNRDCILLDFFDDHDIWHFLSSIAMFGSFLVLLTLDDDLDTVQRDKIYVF
# UniProt Q8CE90: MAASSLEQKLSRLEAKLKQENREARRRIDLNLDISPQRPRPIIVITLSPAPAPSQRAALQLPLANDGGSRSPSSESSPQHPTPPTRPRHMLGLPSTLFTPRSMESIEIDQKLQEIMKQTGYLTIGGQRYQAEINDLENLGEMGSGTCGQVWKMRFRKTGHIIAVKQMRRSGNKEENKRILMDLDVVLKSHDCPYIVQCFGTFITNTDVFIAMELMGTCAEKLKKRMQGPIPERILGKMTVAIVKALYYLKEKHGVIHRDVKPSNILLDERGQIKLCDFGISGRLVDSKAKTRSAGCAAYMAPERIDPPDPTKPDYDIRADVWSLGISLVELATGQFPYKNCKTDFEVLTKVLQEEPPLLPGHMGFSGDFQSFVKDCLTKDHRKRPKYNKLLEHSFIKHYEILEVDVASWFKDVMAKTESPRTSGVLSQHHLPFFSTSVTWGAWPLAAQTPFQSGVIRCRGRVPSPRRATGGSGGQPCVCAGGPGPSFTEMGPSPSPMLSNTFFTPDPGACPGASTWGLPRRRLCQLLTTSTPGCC
# UniProt Q8CFU8: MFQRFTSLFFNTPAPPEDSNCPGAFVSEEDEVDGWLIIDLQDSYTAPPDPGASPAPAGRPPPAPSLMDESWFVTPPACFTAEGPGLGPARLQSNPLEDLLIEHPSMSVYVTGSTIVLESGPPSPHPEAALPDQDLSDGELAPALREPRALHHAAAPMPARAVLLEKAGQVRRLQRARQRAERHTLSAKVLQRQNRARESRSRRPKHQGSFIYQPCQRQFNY
# UniProt Q8CC84: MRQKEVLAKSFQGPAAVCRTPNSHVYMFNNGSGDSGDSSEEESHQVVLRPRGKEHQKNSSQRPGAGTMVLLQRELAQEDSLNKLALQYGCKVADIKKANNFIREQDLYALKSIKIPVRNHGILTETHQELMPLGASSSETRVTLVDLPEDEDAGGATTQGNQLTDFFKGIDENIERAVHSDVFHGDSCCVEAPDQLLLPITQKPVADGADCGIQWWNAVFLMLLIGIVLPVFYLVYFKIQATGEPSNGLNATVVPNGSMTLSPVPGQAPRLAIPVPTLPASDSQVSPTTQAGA
# UniProt Q8K0E8: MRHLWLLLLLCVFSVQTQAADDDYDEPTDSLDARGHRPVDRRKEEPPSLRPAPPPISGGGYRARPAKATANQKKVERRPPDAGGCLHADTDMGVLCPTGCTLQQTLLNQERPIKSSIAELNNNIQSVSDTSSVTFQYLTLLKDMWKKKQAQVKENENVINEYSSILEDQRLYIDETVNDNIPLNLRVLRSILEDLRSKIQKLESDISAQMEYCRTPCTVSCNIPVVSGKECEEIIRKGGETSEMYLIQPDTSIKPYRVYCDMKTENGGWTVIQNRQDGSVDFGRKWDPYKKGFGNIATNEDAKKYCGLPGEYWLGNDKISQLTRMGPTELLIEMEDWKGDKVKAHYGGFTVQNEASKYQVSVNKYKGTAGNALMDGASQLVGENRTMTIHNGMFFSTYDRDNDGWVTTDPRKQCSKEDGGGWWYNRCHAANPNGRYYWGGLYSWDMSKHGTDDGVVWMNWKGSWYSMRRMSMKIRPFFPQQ
# UniProt Q8JZX4: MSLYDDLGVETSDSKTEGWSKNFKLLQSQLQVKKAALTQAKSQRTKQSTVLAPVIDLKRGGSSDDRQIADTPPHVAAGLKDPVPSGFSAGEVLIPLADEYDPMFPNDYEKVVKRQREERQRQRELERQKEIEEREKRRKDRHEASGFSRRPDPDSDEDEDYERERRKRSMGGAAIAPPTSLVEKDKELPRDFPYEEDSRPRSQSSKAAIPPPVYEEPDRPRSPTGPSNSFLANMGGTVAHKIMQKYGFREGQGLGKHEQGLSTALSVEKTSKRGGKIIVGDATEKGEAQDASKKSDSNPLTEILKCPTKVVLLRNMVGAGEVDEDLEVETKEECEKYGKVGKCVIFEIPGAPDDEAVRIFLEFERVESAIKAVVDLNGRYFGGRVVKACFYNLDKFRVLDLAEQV
# UniProt Q8K0G5: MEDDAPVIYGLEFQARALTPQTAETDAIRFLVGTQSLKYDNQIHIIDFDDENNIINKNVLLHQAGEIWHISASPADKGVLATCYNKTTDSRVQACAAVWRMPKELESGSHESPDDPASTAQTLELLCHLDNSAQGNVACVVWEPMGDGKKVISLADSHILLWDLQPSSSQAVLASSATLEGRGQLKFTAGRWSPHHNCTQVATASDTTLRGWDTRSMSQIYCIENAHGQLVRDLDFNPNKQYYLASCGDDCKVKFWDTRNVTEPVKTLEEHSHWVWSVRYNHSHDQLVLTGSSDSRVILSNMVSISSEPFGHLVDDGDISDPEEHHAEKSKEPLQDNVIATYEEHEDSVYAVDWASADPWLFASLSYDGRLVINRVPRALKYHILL
# UniProt Q8CHS8: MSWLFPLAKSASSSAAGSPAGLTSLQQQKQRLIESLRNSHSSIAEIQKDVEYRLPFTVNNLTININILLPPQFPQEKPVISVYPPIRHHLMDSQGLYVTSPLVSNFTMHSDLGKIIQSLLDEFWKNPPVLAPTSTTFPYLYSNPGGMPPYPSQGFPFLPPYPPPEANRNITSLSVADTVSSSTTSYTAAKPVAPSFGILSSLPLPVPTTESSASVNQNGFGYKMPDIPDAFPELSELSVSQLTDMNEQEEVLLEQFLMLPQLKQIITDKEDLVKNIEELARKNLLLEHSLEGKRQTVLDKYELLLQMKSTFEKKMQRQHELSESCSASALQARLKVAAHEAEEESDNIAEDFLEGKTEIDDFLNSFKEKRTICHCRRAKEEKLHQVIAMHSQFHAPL
# UniProt Q8CI95: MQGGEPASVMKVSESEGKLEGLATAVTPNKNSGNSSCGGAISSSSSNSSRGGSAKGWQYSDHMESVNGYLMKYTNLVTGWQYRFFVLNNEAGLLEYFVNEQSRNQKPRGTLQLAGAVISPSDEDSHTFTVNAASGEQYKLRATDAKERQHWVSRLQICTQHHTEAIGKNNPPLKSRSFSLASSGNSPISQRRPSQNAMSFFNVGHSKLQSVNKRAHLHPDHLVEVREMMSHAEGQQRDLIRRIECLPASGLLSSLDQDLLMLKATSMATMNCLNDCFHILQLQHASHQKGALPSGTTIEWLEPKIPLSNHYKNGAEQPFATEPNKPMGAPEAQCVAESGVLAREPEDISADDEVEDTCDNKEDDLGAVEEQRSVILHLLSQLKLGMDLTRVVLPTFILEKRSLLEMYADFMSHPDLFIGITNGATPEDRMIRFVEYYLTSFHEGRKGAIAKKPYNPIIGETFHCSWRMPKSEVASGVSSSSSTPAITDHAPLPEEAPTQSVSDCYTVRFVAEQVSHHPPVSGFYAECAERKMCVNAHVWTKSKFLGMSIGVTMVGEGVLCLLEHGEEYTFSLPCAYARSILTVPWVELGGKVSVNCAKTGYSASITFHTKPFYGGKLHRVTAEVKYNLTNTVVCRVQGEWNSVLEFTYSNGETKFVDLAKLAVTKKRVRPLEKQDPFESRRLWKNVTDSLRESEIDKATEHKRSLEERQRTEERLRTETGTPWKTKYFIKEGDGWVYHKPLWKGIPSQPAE
# UniProt Q8CF98: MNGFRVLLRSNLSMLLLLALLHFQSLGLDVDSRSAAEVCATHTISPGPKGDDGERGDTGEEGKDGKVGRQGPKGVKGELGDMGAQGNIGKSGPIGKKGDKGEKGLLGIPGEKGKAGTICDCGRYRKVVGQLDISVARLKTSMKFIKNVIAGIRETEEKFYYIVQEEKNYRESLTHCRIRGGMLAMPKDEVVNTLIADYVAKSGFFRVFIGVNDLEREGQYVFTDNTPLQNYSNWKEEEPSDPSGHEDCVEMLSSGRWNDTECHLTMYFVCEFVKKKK
# This is one part of the list. Most entries show no effect beyond the scatter of the controls.
# Compound: CN[C@@H]1C[C@H]2O[C@@](C)([C@@H]1OC)n1c3ccccc3c3c4c(c5c6ccccc6n2c5c31)C(=O)NC4 [staurosporine]
# Test: log2 fold change of tryptic peptide abundance, ligand vs vehicle (limited proteolysis) (log2 ratio); higher = more trypsin-susceptible (destabilized)
# Settings: ligand concentration: 20 uM; sample: mouse liver crude lysate; replicate design: treated separately
row,Target,log2 fold change
1,"UniProt Q8CBY8 (peptide sequence: KAYYLACGFCR, peptide start residue: 105)",0.433
2,"UniProt Q8CGK3 (peptide sequence: RAGVTCIILPAENRK, peptide start residue: 893)",-0.536
3,"UniProt Q8CIF6 (peptide sequence: TLLLAIDR, peptide start residue: 326)",0.273
4,"UniProt Q8CE90 (peptide sequence: HMLGLPSTLFTPR, peptide start residue: 89)",-0.142
5,"UniProt Q8CFU8 (peptide sequence: ALHHAAAPMPAR, peptide start residue: 149)",0.23
6,"UniProt Q8CC84 (peptide sequence: GIDENIER, peptide start residue: 169)",0.306
7,"UniProt Q8K0E8 (peptide sequence: RKEEPPSLR, peptide start residue: 42)",0.605
8,"UniProt Q8JZX4 (peptide sequence: QSTVLAPVIDLKR, peptide start residue: 47)",-0.103
9,"UniProt Q8K0G5 (peptide sequence: FLVGTQSLK, peptide start residue: 30)",0.0406
10,"UniProt Q8CHS8 (peptide sequence: QIITDKEDLVK, peptide start residue: 264)",-0.343
11,"UniProt Q8CI95 (peptide sequence: VVLPTFILEKR, peptide start residue: 391)",0.192
12,"UniProt Q8CF98 (peptide sequence: AGTICDCGR, peptide start residue: 115)",-0.185

# From no. 4 to 6, as listed above:
row,Target,log2 fold change
4,"UniProt Q8CE90 (peptide sequence: HMLGLPSTLFTPR, peptide start residue: 89)",-0.142
5,"UniProt Q8CFU8 (peptide sequence: ALHHAAAPMPAR, peptide start residue: 149)",0.23
6,"UniProt Q8CC84 (peptide sequence: GIDENIER, peptide start residue: 169)",0.306
